{"source": "patent US20080267936A1", "about": "“Treatment of trauma-hemorrhage with short oligopeptides” (Biotempt B.V., priority 2007, published 2008)", "data": [{"test_system": "hemorrhagic shock", "assay": "Hemorrhagic shock model, Example 1 (bled to MAP 40 mmHg, 0.9% NaCl resuscitation): blood cells, hematocrit, hepatic blood flow", "format": "in vivo, Wistar rats", "details": "5 mg/kg i.v. 30 minutes after induction of shock", "protocol": "Adult male specific pathogen-free Wistar rats (Harlan CPB, Zeist, The Netherlands), weighing 350 to 400 g were used after a minimum seven-day acclimation period. The animals were housed under barrier conditions and kept at 25° C. with a twelve-hour light/dark cycle. Rats were allowed free access to water and chow (−). All procedures were performed in accordance with the Principles of Laboratory Animal Care (NIH publication No. 86-23, revised 1985) under a protocol approved by the Committee on Animal Research of the Erasmus University (protocol EUR 365).\nThe rats were fasted overnight but were allowed free access to water before the experiment. Subsequent to endotracheal intubation, the rats were mechanically ventilated with an isoflurane (−) N2O/O2 mixture at 60 breaths/minute. Body temperature was continuously maintained at 37.5° C. by placing the animals on a thermo controlled “half-pipe” (UNO, The Netherlands). Polyethylene tubes (PE-50, Becton Dickinson; St. Michielsgestel, The Netherlands) were flushed with heparin and placed via the right carotid artery in the aorta and in the right internal jugular vein. The animals received no heparin before or during the experiment.\nMean arterial pressures (MAP) was measured using transducers (Becton Dickinson) that were connected in line to an electronic recorder (Hewlett Packard, 78354-A Germany) for electronically calculated mean pressures and continuous measurement of the animal's blood pressure. Under semi-sterile conditions, a median laparotomy was performed and ultrasonic perivascular flow probes (Transonic Systems Inc, Maastricht, The Netherlands) were placed on the common hepatic artery and the portal vein. A supra pubic catheter was placed to monitor the urine production during and after resuscitation. […]\nThe hepatic arterial blood flow (QHA) and hepatic portal venous blood flow (QVP) were measured with transit time ultrasonic perivascular flow probes, connected to an ultrasonic meter (T201; Transonic Systems, Inc., Maastricht, NL). Systemic and hepatic hemodynamics were continuously measured. […]", "values": [{"substance": "AQGV [synthetic tetrapeptide, alanine replacement variant of LQGV from loop two of the β-subunit of hCG]", "hematocrit following trauma-hemorrhage, treated vs non-treated groups": "similar"}, {"substance": "LAGV [synthetic tetrapeptide, alanine replacement variant of LQGV from loop two of the β-subunit of hCG]", "hematocrit following trauma-hemorrhage, treated vs non-treated groups": "similar"}, {"substance": "LQGV [synthetic tetrapeptide, part of the primary structure of loop two of the β-subunit of hCG]", "hematocrit following trauma-hemorrhage, treated vs non-treated groups": "similar"}]}]}
